Results are given in words; binding and its absence hold for the method and conditions named. Binding seen in cells or lysates may run through a third protein. Here binding means that the protein was enriched with, or labelled near, the bait; the list need not be complete.
T1: arachidonate 15-lipoxygenase (ALOX15B), in PDAC cells (human) (UniProt O15296)
T1 sequence: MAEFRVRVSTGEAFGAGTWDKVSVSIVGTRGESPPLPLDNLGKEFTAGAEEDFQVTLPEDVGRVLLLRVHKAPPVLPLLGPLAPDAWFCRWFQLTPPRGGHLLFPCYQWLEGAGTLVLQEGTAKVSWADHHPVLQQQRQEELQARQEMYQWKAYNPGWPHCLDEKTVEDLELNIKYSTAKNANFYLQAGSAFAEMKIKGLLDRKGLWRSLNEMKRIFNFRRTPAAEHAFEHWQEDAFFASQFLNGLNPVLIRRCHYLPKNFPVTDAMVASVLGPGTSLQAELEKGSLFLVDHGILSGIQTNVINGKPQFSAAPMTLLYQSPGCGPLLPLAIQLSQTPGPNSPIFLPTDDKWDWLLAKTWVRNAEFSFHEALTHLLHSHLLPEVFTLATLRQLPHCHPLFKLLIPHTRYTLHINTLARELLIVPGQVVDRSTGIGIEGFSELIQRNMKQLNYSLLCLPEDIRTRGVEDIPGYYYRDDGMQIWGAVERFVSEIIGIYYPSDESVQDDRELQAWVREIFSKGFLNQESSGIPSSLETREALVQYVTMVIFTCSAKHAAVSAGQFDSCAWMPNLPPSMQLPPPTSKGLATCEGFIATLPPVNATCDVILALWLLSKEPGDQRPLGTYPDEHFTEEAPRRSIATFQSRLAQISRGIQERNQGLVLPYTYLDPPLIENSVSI

Amino acid sequences for entries named in this document (tags omitted).
UniProt P11413: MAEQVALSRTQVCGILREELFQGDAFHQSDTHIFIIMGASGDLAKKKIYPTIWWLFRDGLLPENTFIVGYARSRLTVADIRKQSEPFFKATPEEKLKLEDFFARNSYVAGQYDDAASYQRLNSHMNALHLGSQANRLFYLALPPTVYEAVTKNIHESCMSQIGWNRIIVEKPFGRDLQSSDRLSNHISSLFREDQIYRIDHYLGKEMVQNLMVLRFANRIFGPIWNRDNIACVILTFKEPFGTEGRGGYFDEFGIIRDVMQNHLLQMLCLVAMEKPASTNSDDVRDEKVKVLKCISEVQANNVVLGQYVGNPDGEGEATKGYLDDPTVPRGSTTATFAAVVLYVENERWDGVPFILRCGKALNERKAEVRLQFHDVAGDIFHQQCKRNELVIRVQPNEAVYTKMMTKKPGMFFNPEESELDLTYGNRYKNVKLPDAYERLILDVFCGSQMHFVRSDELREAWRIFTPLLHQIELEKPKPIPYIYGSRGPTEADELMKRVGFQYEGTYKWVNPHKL
UniProt P46379: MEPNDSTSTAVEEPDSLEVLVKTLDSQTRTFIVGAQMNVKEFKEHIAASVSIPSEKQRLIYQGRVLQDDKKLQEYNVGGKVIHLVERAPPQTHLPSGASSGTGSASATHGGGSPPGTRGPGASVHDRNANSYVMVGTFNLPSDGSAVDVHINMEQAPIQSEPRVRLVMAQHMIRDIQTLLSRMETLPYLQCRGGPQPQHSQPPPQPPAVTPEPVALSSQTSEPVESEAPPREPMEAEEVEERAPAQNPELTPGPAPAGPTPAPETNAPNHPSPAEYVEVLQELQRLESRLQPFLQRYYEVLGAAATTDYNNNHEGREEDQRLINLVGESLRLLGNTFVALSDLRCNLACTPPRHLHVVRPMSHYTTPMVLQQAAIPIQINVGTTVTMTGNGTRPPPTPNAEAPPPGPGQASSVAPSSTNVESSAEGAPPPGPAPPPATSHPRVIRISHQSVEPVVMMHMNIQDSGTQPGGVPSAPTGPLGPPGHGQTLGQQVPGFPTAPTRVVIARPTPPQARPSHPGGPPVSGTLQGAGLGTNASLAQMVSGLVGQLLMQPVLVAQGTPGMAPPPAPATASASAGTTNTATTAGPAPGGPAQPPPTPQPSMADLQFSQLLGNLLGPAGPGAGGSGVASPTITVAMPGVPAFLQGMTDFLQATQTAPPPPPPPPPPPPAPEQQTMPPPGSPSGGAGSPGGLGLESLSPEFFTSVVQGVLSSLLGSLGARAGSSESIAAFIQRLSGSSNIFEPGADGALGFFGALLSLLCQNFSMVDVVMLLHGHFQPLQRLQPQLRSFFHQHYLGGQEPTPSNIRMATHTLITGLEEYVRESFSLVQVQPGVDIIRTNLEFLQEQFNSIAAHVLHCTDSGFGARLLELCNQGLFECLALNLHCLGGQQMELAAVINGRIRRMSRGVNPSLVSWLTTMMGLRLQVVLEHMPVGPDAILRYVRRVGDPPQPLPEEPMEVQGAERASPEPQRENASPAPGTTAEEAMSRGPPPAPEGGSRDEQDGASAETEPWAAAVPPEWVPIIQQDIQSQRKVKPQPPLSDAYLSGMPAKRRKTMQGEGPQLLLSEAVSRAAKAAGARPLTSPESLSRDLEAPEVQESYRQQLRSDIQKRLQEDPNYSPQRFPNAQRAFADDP
UniProt P25685: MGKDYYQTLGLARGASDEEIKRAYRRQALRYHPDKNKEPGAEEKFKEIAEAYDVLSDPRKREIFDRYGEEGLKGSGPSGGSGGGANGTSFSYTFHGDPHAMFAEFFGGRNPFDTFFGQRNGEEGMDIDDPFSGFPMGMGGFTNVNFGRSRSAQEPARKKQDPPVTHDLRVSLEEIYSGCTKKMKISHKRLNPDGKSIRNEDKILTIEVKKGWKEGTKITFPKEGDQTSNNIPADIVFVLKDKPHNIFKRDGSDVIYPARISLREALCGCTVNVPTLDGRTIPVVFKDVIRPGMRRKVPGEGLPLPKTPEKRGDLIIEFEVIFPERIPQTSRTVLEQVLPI

B1: ABHD17C, in PDAC cells (enzyme, UniProt Q6PCB6 1-329)
chain: MPEPGPRMNGFSLGELCWLFCCPPCPSRIAAKLAFLPPEPTYTVLAPEQRGAGASAPAPAQATAAAAAAQPAPQQPEEGAGAGPGACSLHLSERADWQYSQRELDAVEVFFSRTARDNRLGCMFVRCAPSSRYTLLFSHGNAVDLGQMCSFYIGLGSRINCNIFSYDYSGYGVSSGKPSEKNLYADIDAAWQALRTRYGVSPENIILYGQSIGTVPTVDLASRYECAAVILHSPLMSGLRVAFPDTRKTYCFDAFPSIDKISKVTSPVLVIHGTEDEVIDFSHGLAMYERCPRAVEPLWVEGAGHNDIELYAQYLERLKQFISHELPNS
B2: recombinant DCAF10 (natural protein, UniProt Q5QP82 1-559, looked up)
chain: MFPFGPHSPGGDGSAGAGAEEPTPHEGQAAATGPPSPLHPGADATHPPPPARSPRRPGAPSLSPAPRSGELGLPGAPESSTASAPGEPSPPSPPCRRPGPDCRAKSRGRHGLGAGLGGPGARLFGWLKERSLGRGLFVDPARDNFRTMTSLYGSIHPADSVYLSTRTHGAVFNLEYSPDGSVLTVACEQTEVLLFDPISSKHIKTLSEAHEDCVNNIRFLDNRLFATCSDDTTIALWDLRKLNTKVCTLHGHTSWVKNIEYDTNTRLLVTSGFDGNVIIWDTNRYTEDGCPHKKFFHTRFLMRMRLTPDCSKMLISTSSGYLLILHDLDLTKSLEVGSYPILRARRTTSSSDLTTSSSSSGPRVSGSPCHHSDSNSSEKHMSRASQREGVSPRNSLEVVTPEVLGESDHGNCITSLQLHPKGWATLLRCSSNSDDEECTCVYEFQEGAPVRPVSPRCSLRLTHYIEEANVGRGYIKELCFSPDGRMISSPHGYGIRLLGFDKQCSELVDCLPKEASPLRVIRSLYSHNDVVLTTKFSPTHCQIASGCLSGRVSLYQPKF
notes: DCAF10, recombinant
B3: ABHD17B (protein, UniProt Q5VST6 1-288)
chain: MNNLSFSELCCLFCCPPCPGKIASKLAFLPPDPTYTLMCDESGSRWTLHLSERADWQYSSREKDAIECFMTRTSKGNRIACMFVRCSPNAKYTLLFSHGNAVDLGQMSSFYIGLGSRINCNIFSYDYSGYGASSGKPTEKNLYADIEAAWLALRTRYGIRPENVIIYGQSIGTVPSVDLAARYESAAVILHSPLTSGMRVAFPDTKKTYCFDAFPNIDKISKITSPVLIIHGTEDEVIDFSHGLALFERCQRPVEPLWVEGAGHNDVELYGQYLERLKQFVSQELVNL

Target: T1, arachidonate 15-lipoxygenase (ALOX15B), in PDAC cells (human)
Experiment: affinity purification with mass spectrometry; affinity purification of ALOX15B from KRAS^mut-PDAC and KRAS^wt-PDAC cells, quantitative proteomics (IP-MS)

binding, binds:
G6PD (from UniProt P11413 1-515)
BAG6 (from UniProt P46379 1-1132)
DNAJB1 (from UniProt P25685 1-340)
B1
B2
B3
